Assay [1] concerns the target T1, BACE1 (Homo sapiens, UniProt P56817). Description: In Vitro BACE Cell-based Assay (HEK cell assay): Aβ40 in conditioned medium of cells stably expressing Amyloid Precursor Protein, sandwich ELISA. The conditions noted are these: read-out: HEK cell assay.
Assay [2] concerns the target T1, BACE1. Description: In Vitro Enzymatic BACE FRET (Fluorescence Resonance Energy Transfer) Assay. The class given is biochemical. To be noted: read-out: BACE1 FRET assay.

Chains of the proteins cited; added tags and fusions are not shown. Residues count along the entry.
UniProt P56817, 46-501 limits assumed: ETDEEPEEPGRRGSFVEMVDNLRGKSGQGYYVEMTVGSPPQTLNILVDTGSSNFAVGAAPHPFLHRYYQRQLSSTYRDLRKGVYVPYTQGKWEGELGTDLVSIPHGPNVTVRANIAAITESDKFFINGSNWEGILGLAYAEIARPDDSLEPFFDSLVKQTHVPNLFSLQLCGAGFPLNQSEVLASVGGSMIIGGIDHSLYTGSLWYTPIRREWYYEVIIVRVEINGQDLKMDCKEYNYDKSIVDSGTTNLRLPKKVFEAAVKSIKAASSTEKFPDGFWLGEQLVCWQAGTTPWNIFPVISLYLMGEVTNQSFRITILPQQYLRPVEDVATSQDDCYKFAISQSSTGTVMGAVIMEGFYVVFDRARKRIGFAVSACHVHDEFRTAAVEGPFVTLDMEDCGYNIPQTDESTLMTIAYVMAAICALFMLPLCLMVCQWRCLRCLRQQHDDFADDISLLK

Structures were worked out from names or drawings and are uncertain.

For `Cc1ccc(-c2cc3c(cn2)Oc2ccc(-c4cccnc4F)cc2[C@@]32COC(N)=N2)cn1`, the IC50 in assay [1] and in assay [2] was less than 0.1 µM each time.

These data come from US8426447B2, “Spiro-tricyclic ring compounds as beta-secretase modulators and methods of use” (Amgen Inc., priority 2008, dated 2013).
